Experimental data published in article PMC3435242.
Where two headings read alike, the source gives them in different places. These are yes or no findings as the source states them, for the method shown. In cells and extracts the contact can be indirect. Some results given as binding are weak or reduced against the parent protein; the word gives no strength. For part of these data: Sequences can lack the tags named with a protein.

By UniProt entry, the sequences of proteins in these tests, tags left out. Where a name states a change or a piece, a line headed by the entry shows the natural chain unless it says otherwise.
UniProt Q99816: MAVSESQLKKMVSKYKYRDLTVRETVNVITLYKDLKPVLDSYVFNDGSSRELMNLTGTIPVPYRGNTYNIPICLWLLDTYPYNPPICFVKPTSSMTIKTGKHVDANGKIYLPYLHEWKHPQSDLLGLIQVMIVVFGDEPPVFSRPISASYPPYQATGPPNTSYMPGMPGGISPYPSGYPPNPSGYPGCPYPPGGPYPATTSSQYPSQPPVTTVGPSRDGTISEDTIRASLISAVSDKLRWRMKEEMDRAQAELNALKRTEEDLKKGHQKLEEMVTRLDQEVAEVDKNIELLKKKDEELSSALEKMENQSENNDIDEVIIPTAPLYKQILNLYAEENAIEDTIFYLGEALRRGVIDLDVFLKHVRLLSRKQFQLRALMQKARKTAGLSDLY
UniProt Q8WUM4: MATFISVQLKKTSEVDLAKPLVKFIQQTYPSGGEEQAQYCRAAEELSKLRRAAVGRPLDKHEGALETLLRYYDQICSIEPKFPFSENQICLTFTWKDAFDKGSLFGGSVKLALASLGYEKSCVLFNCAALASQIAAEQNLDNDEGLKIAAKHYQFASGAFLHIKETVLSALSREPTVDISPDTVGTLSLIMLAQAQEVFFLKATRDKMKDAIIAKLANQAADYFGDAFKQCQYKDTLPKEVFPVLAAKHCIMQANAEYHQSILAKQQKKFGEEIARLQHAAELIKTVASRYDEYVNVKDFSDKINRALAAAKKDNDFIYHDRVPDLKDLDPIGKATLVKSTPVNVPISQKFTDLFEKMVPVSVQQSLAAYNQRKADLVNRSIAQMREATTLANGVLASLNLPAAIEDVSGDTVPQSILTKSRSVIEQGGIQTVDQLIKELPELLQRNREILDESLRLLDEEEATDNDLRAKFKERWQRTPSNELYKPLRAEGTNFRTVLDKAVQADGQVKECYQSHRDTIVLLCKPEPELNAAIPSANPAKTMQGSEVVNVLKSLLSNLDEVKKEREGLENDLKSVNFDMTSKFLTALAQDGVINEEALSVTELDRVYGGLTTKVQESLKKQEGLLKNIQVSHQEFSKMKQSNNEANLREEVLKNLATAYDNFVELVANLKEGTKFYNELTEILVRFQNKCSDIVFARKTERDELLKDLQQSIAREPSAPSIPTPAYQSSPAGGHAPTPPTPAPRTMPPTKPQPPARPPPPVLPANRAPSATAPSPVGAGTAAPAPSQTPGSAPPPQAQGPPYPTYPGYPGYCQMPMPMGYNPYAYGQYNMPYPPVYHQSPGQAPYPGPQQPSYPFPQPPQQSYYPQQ
UniProt Q9UN37: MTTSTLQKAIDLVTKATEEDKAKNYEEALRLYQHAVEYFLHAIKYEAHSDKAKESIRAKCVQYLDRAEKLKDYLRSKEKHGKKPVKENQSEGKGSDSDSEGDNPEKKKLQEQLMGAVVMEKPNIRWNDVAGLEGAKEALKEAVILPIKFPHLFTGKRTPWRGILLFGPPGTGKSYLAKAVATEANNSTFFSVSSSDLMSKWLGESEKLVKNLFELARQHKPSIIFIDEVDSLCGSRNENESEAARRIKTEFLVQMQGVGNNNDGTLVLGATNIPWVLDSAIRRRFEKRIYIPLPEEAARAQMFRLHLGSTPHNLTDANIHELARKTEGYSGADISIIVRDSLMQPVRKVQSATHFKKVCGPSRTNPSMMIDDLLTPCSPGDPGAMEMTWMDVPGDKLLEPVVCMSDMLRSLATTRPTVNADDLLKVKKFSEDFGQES

Legend:
[1] = target: HA-BFRF1d(314-336) (Epstein-Barr virus) (UniProt P03185); test: co-IP; lysates of transfected HeLa cells in RIPA buffer, 24 h post transfection; immunoprecipitated with anti-HA, anti-GFP or anti-Alix, anti-GST as control; protein A-Sepharose, 4°C; immunoblot; for BFRF1 and Alix also with co-expressed GFP-Chmp4b and mCherry-Vps4-DN (more Alix found)
[2] = target: T1, GFP-Chmp4b (UniProt Q9H444); test: as above
T1 sequence: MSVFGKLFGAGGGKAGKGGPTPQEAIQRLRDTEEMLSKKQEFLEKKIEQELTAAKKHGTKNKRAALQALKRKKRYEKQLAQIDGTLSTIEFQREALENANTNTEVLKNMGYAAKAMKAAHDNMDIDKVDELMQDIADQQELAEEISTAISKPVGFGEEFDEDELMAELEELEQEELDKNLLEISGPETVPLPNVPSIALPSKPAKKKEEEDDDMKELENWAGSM

[3] = target: T2, HA-BFRF1 (Epstein-Barr virus) (UniProt P03185); test: as above
T2 sequence: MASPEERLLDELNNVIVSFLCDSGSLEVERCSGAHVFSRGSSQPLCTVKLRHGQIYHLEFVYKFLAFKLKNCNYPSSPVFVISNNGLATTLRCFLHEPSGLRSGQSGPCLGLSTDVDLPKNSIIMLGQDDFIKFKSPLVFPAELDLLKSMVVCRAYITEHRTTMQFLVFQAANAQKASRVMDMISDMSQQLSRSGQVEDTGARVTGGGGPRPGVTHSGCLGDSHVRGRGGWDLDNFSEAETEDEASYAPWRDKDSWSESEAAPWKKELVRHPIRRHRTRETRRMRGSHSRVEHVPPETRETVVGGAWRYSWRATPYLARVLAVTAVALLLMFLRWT

[4] = target: T2, HA-BFRF1 (Epstein-Barr virus); test: as above; remark: listed apart in the source
[5] = target: T1, GFP-Chmp4b; test: as above; remark: listed apart in the source
[6] = target: TSG101 (tumor susceptibility gene 101) (human (endogenous in HeLa or NA cells)) (UniProt Q99816); test: co-IP; data not shown; immunoprecipitated with TSG101 antibody; cells co-expressing HA-BFRF1 and Flag-BFLF2, or BFRF1 alone; cell line not named

Molecule: Alix (apoptosis linked gene-2 interacting protein X), endogenous in HeLa (from UniProt Q8WUM4 1-868)
- binding [1]: binds
- binding [2]: binds weakly

Molecule: Flag-Alix_Bro (from UniProt Q8WUM4 1-358) (domain or fragment)
- binding [3]: binds

Molecule: Flag-Alix_PRR (from UniProt Q8WUM4 717-868) (domain or fragment)
- binding [3]: binds

Molecule: Flag-Alix_V (from UniProt Q8WUM4 362-705) (domain or fragment)
- binding [3]: no binding

Molecule: mCherry-Vps4-DN (Vps4A E228Q) (from UniProt Q9UN37 1-437) (enzyme)
- binding [3]: binds

B1: HA-BFRF1 (protein, UniProt P03185 1-336)
chain: MASPEERLLDELNNVIVSFLCDSGSLEVERCSGAHVFSRGSSQPLCTVKLRHGQIYHLEFVYKFLAFKLKNCNYPSSPVFVISNNGLATTLRCFLHEPSGLRSGQSGPCLGLSTDVDLPKNSIIMLGQDDFIKFKSPLVFPAELDLLKSMVVCRAYITEHRTTMQFLVFQAANAQKASRVMDMISDMSQQLSRSGQVEDTGARVTGGGGPRPGVTHSGCLGDSHVRGRGGWDLDNFSEAETEDEASYAPWRDKDSWSESEAAPWKKELVRHPIRRHRTRETRRMRGSHSRVEHVPPETRETVVGGAWRYSWRATPYLARVLAVTAVALLLMFLRWT
- binding [4]: binds
- binding [5]: binds weakly

B2: Flag-BFLF2 (protein, UniProt P0CK47 1-318)
chain: MAPVTPDAVNARQQRPADPALRRLMHPHHRNYTASKASAHSVKSVSRCGKSRSELGRMERVGSVARSICSRHTRHGVDRSHFSLRDFFRGISANFELGKDFLREMNTPIHVSEAVFLPLSLCTLSPGRCLRLSPFGHSLTLGSHCEICINRSQVHVPQEFSSTQLSFFNNVHKIIPNKTFYVSLLSSSPSAVKAGLSQPSLLYAYLVTGHFCGTICPIFSTNGKGRLIMHLLLQGTSLHIPETCLKLLCENIGPTYELAVDLVGDAFCIKVSPRDTVYEKAVNVDEDAIYEAIKDLECGDELRLQIINYTQLILENKQ
- binding [6]: binds
